Measurements from PMC6662822, “Rational drug-design approach supported with thermodynamic studies — a peptide leader for the efficient bi-substrate inhibitor of protein kinase CK2” (Scientific Reports, 2019).
No constants are given. Whether binding was seen depends on the method and setting. Some binding calls cover weakened binding; strength is not graded here.

Sequences of proteins named here, by UniProt entry; tags and fusion partners are left off.
UniProt P68400: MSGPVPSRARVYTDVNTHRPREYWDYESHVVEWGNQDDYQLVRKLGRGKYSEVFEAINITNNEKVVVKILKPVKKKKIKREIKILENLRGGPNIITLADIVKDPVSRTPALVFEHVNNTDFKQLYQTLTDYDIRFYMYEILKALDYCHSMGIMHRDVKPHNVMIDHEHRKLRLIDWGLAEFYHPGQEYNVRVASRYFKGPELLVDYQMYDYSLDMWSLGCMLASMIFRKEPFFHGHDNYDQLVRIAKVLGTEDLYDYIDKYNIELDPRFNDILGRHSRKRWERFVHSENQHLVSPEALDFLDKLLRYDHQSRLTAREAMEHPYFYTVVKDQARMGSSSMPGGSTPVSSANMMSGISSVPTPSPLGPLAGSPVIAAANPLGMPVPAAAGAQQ

Molecular target: catalytic subunit of human protein kinase CK2 (human) (UniProt P68400)
Assay: pull-down; His-tagged CK2α immobilised on cobalt resin (Pierce His Protein Interaction Pull-Down Kit); peptide library [KGDE]-[DE]-[ST]-[DE]3-NH2 in TBS, overnight at 4 °C; eluted with 2 M glycine pH 2.5; peptides identified by LC-MS (ESI-MS) by mass, against the library itself and a column without CK2α; both purified

Binder	binding
KETEEE (C-terminal amide) [KETEEE-NH2]	binds
EETEEE (C-terminal amide) [EETEEE-NH2]	binds
